Source: PubChem BioAssay AID2685 (National Center for Advancing Translational Sciences (NCATS), 2010)
Several values for one entry are separate records, joined by “and”; a condition that tells them apart may be missing. Equal entries are not always repeated. Some of the results follow. The main result of the screen is listed elsewhere. These columns were measured beside it and carry no call. The list favours compounds with an active or inconclusive main result. Potencies come from curve fits of mixed quality, noted in brackets.

Test: qHTS Assay for Lipid Storage Modulators in Drosophila S3 Cells;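 on cell number change: cells counted by Cell Tracker Red CMTPX staining in the red channel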
Details: BODIPY lipid droplet fluorescence, 18-24 h; for cell number change: measured here: cell count max response, cells fed with added oleic acid
Procedure, shortened: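 Drosophila S3 cells loaded with oleic acid (400 uM, as added) and compounds at several concentrations; lipid droplets imaged by 488-nm laser-scanning cytometry, 500–530 nm intensity and object ratio to cell channel. Percent activity normalized to 20 uM Triacsin C.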

[1] = measured here: lipid fluorescence (Fed channel) AC50, cells fed with added oleic acid
[2] = measured here: cell number channel AC50, cells fed with added oleic acid

SMILES | cell number change | AC50 [1] | AC50 [2]
CCOc1ccc(N2CC(C(=O)NC3=NCCS3)CC2=O)cc1 (configuration not stated) | -16.2% | 4.11 µM [falling, full curve] | 
CC(C)(C)NC(=O)C(c1ccncc1)N(Cc1cccs1)C(=O)Cn1nnc(-c2cccs2)n1 (configuration not stated) | -2.66% | 2.91 µM [rising, single point] | 
N#Cc1c(C(F)(F)F)cc(C2CC2)[nH]c1=O | -26.7% | 1.84 µM [falling, partial curve, poor fit] | 3.26 µM [falling, full curve, poor fit]
CCC(=O)NNc1nc2c(C)cc(C)cc2s1 | 36.4% | 20.6 µM [rising, single point] | 
O=C(CNc1cccc([N+](=O)[O-])c1)NCCCc1ccccc1 | 5.13% |  | 
[O-]C1=N/[N+](=C/c2ccc(Cl)c(Cl)c2)CC1 | -3.41% | 0.58 µM [falling, single point] | 
N#C/C(=C\c1cc([N+](=O)[O-])ccc1Cl)C(N)=O | -17.5% |  | 
Nc1ccc(N2CCN(CCCCN3C(=O)C4CCCN4C3=O)CC2)cc1 (configuration not stated) | 2.19% |  | 0.517 µM [falling, single point]
O=S1(=O)CCN2N=C(C3CC3)SC2=N1 | -13.2% | 1.03 µM [falling, full curve] | 6.51 µM [falling, single point]
O=c1c(=O)n(O)c2ccccc2n1O | -3.94% |  | 
Cc1csc(NC(=O)CCN2C(=O)c3ccccc3S2(=O)=O)n1 | 14.8% |  | 
Cc1ccc(Cl)cc1N1CCN(C(c2cccnc2)c2nnnn2C2CCCCC2)CC1 (configuration not stated) | 7.04% | 1.3 µM [rising, partial curve] | 
CCCc1nc2ccccc2c(C(=O)OCC(=O)Nc2ccc(S(=O)(=O)N3CCOCC3)cc2)c1CC | 16.6% | 3.66 µM [falling, single point] | 
COC(=O)[C@]1(C)CCC[C@@]2(C)C3CC[C@]4(OC(C)=O)C[C@@]3(CCC21)CC4=NO (some centres not stated) | -23.8% | 0.103 µM [falling, full curve] | 
FC(F)(F)C1=CC(c2ccccc2)=NCCN1 | 8.49% |  | 
Cc1cc(C)cc(NC(=O)CSc2nc(=O)n(CCN3CCOCC3)c3c2CCCC3)c1 |  |  | 0.58 µM [falling, single point]
Cc1cc(OCC(=O)NCCCN2CCCC2=O)c2c(C)c(C)c(=O)oc2c1 | 20.5% |  | 
CCOC(=O)c1cnc(SC)nc1NCCOC | -16.6% |  | 
CN1CCc2cc3c(c4c2[C@H]1[C@H](O)c1ccccc1-4)OCO3 | 22.7% | 6.51 µM [rising, partial curve] | 
CC(C)c1ccc(/C=N/NC(=O)c2nnn(-c3nonc3N)c2CSC2=NCCS2)cc1 | 5.85% |  | 

2 compounds picked at random from those above, as already listed:
SMILES | cell number change | AC50 [1] | AC50 [2]
N#Cc1c(C(F)(F)F)cc(C2CC2)[nH]c1=O | -26.7% | 1.84 µM [falling, partial curve, poor fit] | 3.26 µM [falling, full curve, poor fit]
CCC(=O)NNc1nc2c(C)cc(C)cc2s1 | 36.4% | 20.6 µM [rising, single point] | 

Continuation:

SMILES | cell number change | AC50 [1] | AC50 [2]
CCOc1ccc(NC(=O)CC2C(=O)N(CC)C(=S)N2NC(=O)c2ccncc2)cc1 (configuration not stated) | -5.81% |  | 
O=S(=O)(c1ccc2c(c1)OCCO2)N1CCNCC1 | 13.5% | 0.13 µM [rising, full curve, poor fit] | 
O=C(CN1CCN(Cc2ccccc2)CC1)Nc1ccc(S(=O)(=O)N2CCOCC2)cc1 | -14.3% | 0.82 µM [falling, partial curve, poor fit] | 
COCCCN(C(=S)Nc1cccc(Cl)c1)C(C)c1ccncc1 (configuration not stated) | -7.64% |  | 
CCN(CCCNC(=O)C1c2ccccc2C(=O)N(CCOC)C1c1ccc(F)cc1)Cc1ccccc1 (configuration not stated) | -10.9% | 0.58 µM [falling, full curve, poor fit] | 0.231 µM [falling, full curve, poor fit]
CCCC(=O)N1c2ccccc2[C@@H](N(C(C)=O)c2ccccc2)C[C@H]1C | 39.2% |  | 0.00461 µM [rising, full curve, poor fit]
O=C(NC1CCCC1)c1cccc(S(=O)(=O)Nc2ccccc2F)c1 | -6.16% | 2.31 µM [rising, partial curve] | 
COc1cc2c(=O)n(Cc3ccccc3)c(=O)n(CC(=O)NCc3ccco3)c2cc1OC |  | 0.461 µM [rising, partial curve, poor fit] | 0.517 µM [rising, partial curve]
Cc1ccc(N(Cc2cc(=O)[nH]c3ccccc23)C(=O)CCl)cc1 | 5.79% | 20.6 µM [falling, single point] | 
Cc1onc(-c2ccccc2)c1C(=O)NC(=S)NNC(=O)c1ccco1 | -50.3% | 14.6 µM [falling, partial curve] | 14.6 µM [falling, partial curve]
C[n+]1cc[nH]c1SCC(=O)c1ccc(Cl)cc1 |  | 0.13 µM [falling, full curve, poor fit] | 0.092 µM [falling, full curve, poor fit]
O=C(COC(=O)c1cccnc1)Nc1cccc2ccccc12 | 13.2% |  | 4.11 µM [rising, single point]
COc1ccccc1NS(=O)(=O)c1cccc(C(=O)N/N=C/c2ccc(N3CCOCC3)cc2)c1 |  |  | 0.184 µM [falling, full curve]
Cc1nc2ccccn2c1C(=O)NC1CCCCC1 | -11.5% |  | 1.46 µM [falling, single point]
CC1=CC(C)(C)Nc2ccccc21 | -46.5% and -30.1% | 29.1 µM [falling, single point] and 92 nM [falling, full curve, poor fit] | 20.6 µM [falling, single point] and 82 nM [falling, full curve, poor fit]
COc1cc(/C=N/O)ccc1OCc1ccc(Cl)cc1 | -46.4% | 1.46 µM [falling, partial curve] | 2.31 µM [falling, partial curve, poor fit]
COc1ccc(C(C)=O)cc1COc1cccc2cccnc12 | 8.76% |  | 
COc1ccc2c(c1)-c1c(ssc1=S)C(C)(C)N2C(=O)CSC1=NCCS1 | -75.5% | 20.6 µM [falling, partial curve] | 25.9 µM [falling, partial curve]
C=CCN(CC=C)c1cnn(-c2nc3ccccc3[nH]2)c(=O)c1Cl | 27.3% |  | 1.3 µM [rising, full curve, poor fit]
